# Assay results published in PubChem BioAssay AID1671190 (National Center for Advancing Translational Sciences (NCATS), 2021).
# The chains behind the UniProt entries cited, without tags or fusion partners. Where a name states a change or a piece, a line headed by the entry shows the natural chain unless it says otherwise.
# UniProt P18054: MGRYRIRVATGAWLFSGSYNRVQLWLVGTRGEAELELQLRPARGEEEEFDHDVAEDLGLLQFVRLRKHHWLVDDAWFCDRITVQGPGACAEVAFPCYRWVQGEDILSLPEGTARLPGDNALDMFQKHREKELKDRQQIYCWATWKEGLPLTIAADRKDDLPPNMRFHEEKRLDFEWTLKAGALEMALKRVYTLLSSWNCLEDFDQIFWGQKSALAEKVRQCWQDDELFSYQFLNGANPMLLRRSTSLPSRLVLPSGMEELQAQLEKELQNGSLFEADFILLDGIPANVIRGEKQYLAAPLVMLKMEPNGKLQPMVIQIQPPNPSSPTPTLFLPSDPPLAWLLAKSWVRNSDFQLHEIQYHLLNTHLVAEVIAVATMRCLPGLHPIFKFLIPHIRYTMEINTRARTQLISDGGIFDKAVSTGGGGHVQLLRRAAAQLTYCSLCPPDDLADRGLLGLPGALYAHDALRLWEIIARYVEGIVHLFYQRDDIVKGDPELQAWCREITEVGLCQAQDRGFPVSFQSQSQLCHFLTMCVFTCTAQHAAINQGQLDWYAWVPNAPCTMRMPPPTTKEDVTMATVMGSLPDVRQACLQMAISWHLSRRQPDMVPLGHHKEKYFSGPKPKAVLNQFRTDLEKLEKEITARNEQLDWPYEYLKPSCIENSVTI
# Among all 580,000 compounds or so, about 6,100 (1.1%) were called active. Inconclusive results, whose numbers are uncertain, are shown with a selection of clear calls. The call rests on the fitted dose curve; in most records, active means well fitted inhibition curve with a large enough effect; inconclusive means small, poorly fitted or top-dose-only effect, or another doubt; inactive means no such curve, though single readings can be large or run the other way. A potency beside an inconclusive call is a rough fit, not a confirmed value.
# Target: Polyunsaturated fatty acid lipoxygenase ALOX12 (Homo sapiens) (UniProt P18054)
# Test: Primary qHTS assay for inhibitors of human arachidonate 12S-lipoxygenase (ALOX12): Round 2
# Details: purified 12hLO, xylenol orange hydroperoxide absorbance; activity change, negative = inhibition: at 108 µM (top of the series) unless noted
# In short: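 Purified human 12hLO at 150 nM in 25 mM Hepes, 0.01% Triton X-100, pH 7.0, preincubated 15 min at room temperature with compound. Reaction started with 40 uM arachidonic acid, 30 min at room temperature. Hydroperoxide measured by Fe-xylenol orange, 573/405 nm absorbance ratio.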
# On the % scale 0 is the no-effect control and ±100 the full control effect; potency means the concentration at half of the fitted maximal effect.
SMILES,Potency,"activity change, negative = inhibition"
COc1cccc(-c2nccc(NCc3ccccc3OC)n2)c1,"inconclusive: 112 µM [inhibitor, partial curve, poor fit]",–
O=C(COC(=O)CSc1cc(Cl)ccc1Cl)NCc1ccc2c(c1)OCO2,–,inactive: -0.191%
O=C1c2[nH]nc(-c3ccccc3O)c2C(c2cccc(Cl)c2)N1Cc1ccco1 (stereo unspecified),–,inactive: -4.25%
CCNC(=O)CSc1nnc(CN2CCCCCC2=O)n1-c1ccccn1,"inconclusive: 112 µM [inhibitor, single point]",–
CC(C)CCNC1=CC(=O)CC(c2ccccc2)C1 (stereo unspecified),"inconclusive: 35.5 µM [inhibitor, single point]",–
COc1ccc(-n2c(SCC(N)=O)nnc2-c2ccc(NS(=O)(=O)c3ccc(C)cc3)cc2)cc1,"inconclusive: 112 µM [inhibitor, partial curve, poor fit]",–
Cc1ccc(OCC(=O)Nc2cnn(CCCC(=O)O)c2)c([N+](=O)[O-])c1,"inconclusive: 44.7 µM [inhibitor, single point]",–
COc1ccc(C2=Nc3ccc(C)cc3NC(c3ccc(Cl)cc3)=N2)cc1,–,inactive: -24.9%
CCOc1ccc(C(=O)c2cnc3ccccc3c2N2CCN(CC)CC2)cc1,"inconclusive: 12.6 µM [inhibitor, partial curve, poor fit]",–
CCn1c(SCC(=O)NC2=NCCS2)nnc1C(C)NC(=O)c1ccc(Cl)cc1 (stereo unspecified),–,inactive: -23.7%
CCCCCn1c(=O)c(C(=O)OCC)c(Cl)c2ccccc21,"inconclusive: 100 µM [inhibitor, partial curve, poor fit]",–
O=C(NCCc1nc2ccccc2[nH]1)/C(=C/c1ccco1)NC(=O)c1ccccc1Br,–,inactive: -5.14%
CC(=O)Nc1ccc(S(=O)(=O)NC[C@@H]2C=C(C)[C@H](CC(=O)NC3CCCC3)C[C@H]2C(C)C)cc1,"inconclusive: 56.2 µM [inhibitor, single point]",–
O=c1n(Cc2ccccc2)c2cc(Cl)cnc2n1Cc1ccccc1,–,inactive: 0%
COc1ccc(CNC(=O)c2cccc(NC(=O)N3CCSc4ncccc43)c2)cc1,"inconclusive: 89.1 µM [inhibitor, partial curve, poor fit]",–
O=C1NCCC[C@@H]1NC(=O)[C@@H]1CN(C(=O)c2cccs2)CCN1C(=O)c1ccccc1,–,inactive: 2.78%
COC(=O)[C@]1(CC(C)C)N[C@H](c2ccc(-c3ccc(OC)cc3)cc2)[C@@H]2C(=O)N(C)C(=O)[C@@H]21,"inconclusive: 44.7 µM [inhibitor, partial curve, poor fit]",–
CC1CCN(S(=O)(=O)N(C)Cc2ccc3c(c2)OCO3)CC1,–,inactive: -26.8%
C=CCc1c(C)nc(Nc2nc(C)c3cc(CC)ccc3n2)[nH]c1=O,"inconclusive: 100 µM [inhibitor, single point]",–
O=C(Nc1c(-c2ccc(Cl)cc2)[nH][nH]c1=O)c1ccccc1Cl,"inconclusive: 50.1 µM [inhibitor, partial curve, poor fit]",–
O=C(CN1CCCCCC1)Nc1nc2ccccc2s1,"inconclusive: 1.12 µM [inhibitor, full curve]",–
Cc1ccc2cc(C3CC(c4cccs4)=NN3S(C)(=O)=O)c(Cl)nc2c1 (stereo unspecified),–,inactive: 2.02%

# In a second layout: entries from further up
SMILES | Potency | activity change, negative = inhibition
CCn1c(SCC(=O)NC2=NCCS2)nnc1C(C)NC(=O)c1ccc(Cl)cc1 (stereo unspecified) | – | inactive: -23.7%
CCCCCn1c(=O)c(C(=O)OCC)c(Cl)c2ccccc21 | inconclusive: 100 µM [inhibitor, partial curve, poor fit] | –

# More compounds.

SMILES,Potency,"activity change, negative = inhibition"
O=C1Nc2ccc(F)cc2C12Nc1ccccc1-c1nnc(SCc3ccccc3F)nc1O2 (stereo unspecified),"inconclusive: 25.1 µM [inhibitor, partial curve]",–
Cc1ccc(Sc2nnc(Cc3ccccc3)c3ccccc23)cc1,"inconclusive: 44.7 µM [inhibitor, partial curve, poor fit]",–
O=C1CC(c2ccc(F)cc2)c2cc(Br)c3ccccc3c2N1 (stereo unspecified),–,inactive: -18.7%
O=[N+]([O-])C(Cl)C(=Nc1ccc(Br)cc1)n1nnc2ccccc21 (stereo unspecified),"inconclusive: 4.47 µM [inhibitor, full curve]",–
COc1ccc(C2C=C(C34CC5CC(CC(C5)C3)C4)NC(=S)N2)cc1OC (stereo unspecified),"inconclusive: 44.7 µM [inhibitor, partial curve, poor fit]",–
O=C(CSc1nnc(CNC(=O)c2ccccc2)o1)Nc1ccc2c(c1)OCCO2,"inconclusive: 126 µM [inhibitor, single point]",–
O=S(=O)(Nc1nc2ccccc2nc1N1CCCCCC1)c1ccc2c(c1)OCCO2,"inconclusive: 0.251 µM [inhibitor, full curve, poor fit]",–
COc1cccc(N2CC(C(=O)NCCNC(=O)c3c[nH]c4ccccc34)CC2=O)c1 (stereo unspecified),–,inactive: -4.06%
CC(C)(C(N)=O)c1ccccc1,–,inactive: -0.636%
COc1cccc(/C=N/N2C(=O)CSC2=S)c1O,active: 35.5 µM,–
COc1ccc(N(CC(=O)NCC2CCCO2)C(=O)CCC(=O)Nc2cc(C)on2)cc1OC (stereo unspecified),"inconclusive: 44.7 µM [inhibitor, partial curve, poor fit]",–
Cc1ccc(NC(=O)CC2Nc3cccc4cccc(c34)NC2=O)cc1 (stereo unspecified),"inconclusive: 20 µM [inhibitor, partial curve, poor fit]",–
COc1nc2cc(C)c(C)cc2nc1C(=O)Nc1c(C)cccc1C,–,inactive: -14.2%
CC(C)Cn1c(-c2csc(C(C)C)c2)n[nH]c1=S,active: 39.8 µM,–
O=C(Cc1ccc(Br)cc1)Nc1cccc2ncccc12,"inconclusive: 25.1 µM [inhibitor, partial curve]",–
COc1ccc(CNc2ncc(-c3ccccc3)n2C)c(OC)c1OC,active: 2 µM,–
COc1ccc(C(=O)C(C)OC(=O)c2cc(OC)cc(OC)c2)cc1 (stereo unspecified),"inconclusive: 14.1 µM [inhibitor, partial curve, poor fit]",–
CC(NCc1ccco1)C(=O)N1CCc2ccccc2C1 (stereo unspecified),"inconclusive: 0.562 µM [inhibitor, full curve, poor fit]",–
CCc1ccc([C@@H]2c3c(C)nn(-c4ccccc4)c3NC(=O)[C@H]2NC(=O)c2ccccc2)cc1,"inconclusive: 50.1 µM [inhibitor, partial curve, poor fit]",–
O=C(NCC1CN(C(=O)c2cccc(O)c2)CC12CN(c1ccccc1)C2)Nc1ccccc1 (stereo unspecified),"inconclusive: 39.8 µM [inhibitor, full curve]",–
CCOCC(=O)Nc1nnc(COc2ccc(Cl)cc2)s1,"inconclusive: 79.4 µM [inhibitor, single point]",–
CN1CC2(CCN(Cc3ccc(C#N)cc3)CC2)CC(c2ccccc2)C1=O (stereo unspecified),"inconclusive: 35.5 µM [inhibitor, partial curve, poor fit]",–

SMILES,Potency,"activity change, negative = inhibition"
COC[C@]1(O)CCN(S(=O)(=O)c2cccc(C(=O)O)c2)CC1(C)C,–,inactive: 7.73%
Cc1nn(CC(=O)N2CCN(c3ccccc3)CC2)c(=O)c2cccn12,"inconclusive: 50.1 µM [inhibitor, partial curve, poor fit]",–
COc1ccc(N=C2C(=Nc3ccc(OC)cc3)N(c3ccc(OC)cc3)C(=S)N2C(=O)c2ccc(OC)cc2)cc1,"inconclusive: 50.1 µM [inhibitor, partial curve, poor fit]",–
O=C1NC[C@@H](CCCCN2C[C@H](Cc3ccc(O)cc3)N(Cc3ccccc3)C(=O)C2=O)N(CC2CCCCC2)C1=O,"inconclusive: 89.1 µM [inhibitor, single point]",–
Clc1ccccc1Cn1nnc2c(Nc3ccccc3)ncnc21,–,inactive: -25.4%
CCc1nn(CC(=O)NCc2cccc(OC)c2)c(=O)c2cc3cc(F)ccc3n12,–,inconclusive: -40.7% [inhibitor]
CCOc1cc(CNCc2ccco2)ccc1OCc1ccccc1,–,inactive: -46.2%
Cc1ccc(NC(=O)CSCC(=O)Nc2cc(S(=O)(=O)N3CCOCC3)ccc2OC(C)C)cc1,"inconclusive: 158 µM [inhibitor, single point]",–
CCOc1ccc(CCN2C(=S)N([C@@H](CC(C)C)CN3CCC[C@@H]3CN3C(=S)NC[C@@H]3Cc3ccccc3)C[C@@H]2Cc2ccc(O)cc2)cc1,"inconclusive: 44.7 µM [inhibitor, partial curve, poor fit]",–
CCCCCCC(O)(c1ccccc1)C(CN1CCOCC1)c1ccccc1 (stereo unspecified),"inconclusive: 35.5 µM [inhibitor, partial curve, poor fit]",–
Cc1cc(-c2nnc3n2N=C(c2ccccc2Br)CS3)n[nH]1,"inconclusive: 89.1 µM [inhibitor, partial curve, poor fit]",–
CCc1cccc2c(C(=O)CN3C(=O)CC4(CCCCC4)C3=O)c[nH]c12,"inconclusive: 50.1 µM [inhibitor, single point]",–
CC(C)N1C[C@H](O)C[C@H]1c1nnc2n1CCN(C(=O)c1ccsc1)CC2,–,inactive: 26.8%
Cc1cccc(NC(=O)Cn2c(=O)oc3ccccc32)c1,–,inactive: -20.2%
Cn1c(=O)c2c(nc(N3CCN(c4ccccn4)CC3)n2Cc2ccccc2F)n(C)c1=O,–,inactive: 15.5%
COc1ccccc1-n1c(SC)nc2c(sc(=S)n2-c2ccccc2)c1=O,–,inactive: 0%
Cc1cccc(OCc2nnc(SC(C)C(=O)Nc3ccc(N4CCOCC4)cc3)o2)c1 (stereo unspecified),"inconclusive: 89.1 µM [inhibitor, single point]",–
COc1ccc(-c2oc3c(c2C#CC(C)(C)O)C(OC)CCC3)cc1 (stereo unspecified),"inconclusive: 89.1 µM [inhibitor, partial curve, poor fit]",–
N#CC1=C(n2cccc2)N(c2ccc(Br)cn2)C2=C(C(=O)CCC2)C1c1cccc(C(F)(F)F)c1 (stereo unspecified),"inconclusive: 35.5 µM [inhibitor, partial curve, poor fit]",–
CC(C)(CNC(=O)c1cc(-c2ccc(Cl)cc2)on1)N1CCOCC1,–,inactive: 7.97%
Cc1ccc(-n2ncc3c(NCCC4=CCCCC4)ncnc32)cc1C,"inconclusive: 44.7 µM [inhibitor, partial curve, poor fit]",–
COc1ccc(-n2c(=O)c(-c3ccccc3)nc3cnc(N4CCN(C)CC4)nc32)cc1,"inconclusive: 100 µM [inhibitor, single point]",–
